Assay results reported in the supplement of paper PMC10849652.
The other results are listed elsewhere or left out.

Amino acid sequences for entries named in this document (tags omitted). A change or cut given only in a name is not applied to a line headed by its entry.
UniProt P40855: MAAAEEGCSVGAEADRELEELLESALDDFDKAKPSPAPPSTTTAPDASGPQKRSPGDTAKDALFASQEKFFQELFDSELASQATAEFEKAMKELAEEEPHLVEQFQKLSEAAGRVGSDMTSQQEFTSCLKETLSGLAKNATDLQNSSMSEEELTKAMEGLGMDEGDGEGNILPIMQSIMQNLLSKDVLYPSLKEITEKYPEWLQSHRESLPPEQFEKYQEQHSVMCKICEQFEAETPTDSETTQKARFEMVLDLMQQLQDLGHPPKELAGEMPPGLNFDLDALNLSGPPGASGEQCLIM
UniProt Q96BK5: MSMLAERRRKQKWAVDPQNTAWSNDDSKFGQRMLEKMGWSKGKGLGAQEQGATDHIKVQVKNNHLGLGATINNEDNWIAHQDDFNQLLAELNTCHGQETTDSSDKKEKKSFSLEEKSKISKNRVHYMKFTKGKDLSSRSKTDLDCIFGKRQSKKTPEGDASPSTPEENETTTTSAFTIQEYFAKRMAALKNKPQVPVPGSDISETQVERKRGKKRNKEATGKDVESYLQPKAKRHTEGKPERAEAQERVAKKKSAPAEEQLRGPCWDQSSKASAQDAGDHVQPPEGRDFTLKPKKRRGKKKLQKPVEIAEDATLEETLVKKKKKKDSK
UniProt Q9Y446: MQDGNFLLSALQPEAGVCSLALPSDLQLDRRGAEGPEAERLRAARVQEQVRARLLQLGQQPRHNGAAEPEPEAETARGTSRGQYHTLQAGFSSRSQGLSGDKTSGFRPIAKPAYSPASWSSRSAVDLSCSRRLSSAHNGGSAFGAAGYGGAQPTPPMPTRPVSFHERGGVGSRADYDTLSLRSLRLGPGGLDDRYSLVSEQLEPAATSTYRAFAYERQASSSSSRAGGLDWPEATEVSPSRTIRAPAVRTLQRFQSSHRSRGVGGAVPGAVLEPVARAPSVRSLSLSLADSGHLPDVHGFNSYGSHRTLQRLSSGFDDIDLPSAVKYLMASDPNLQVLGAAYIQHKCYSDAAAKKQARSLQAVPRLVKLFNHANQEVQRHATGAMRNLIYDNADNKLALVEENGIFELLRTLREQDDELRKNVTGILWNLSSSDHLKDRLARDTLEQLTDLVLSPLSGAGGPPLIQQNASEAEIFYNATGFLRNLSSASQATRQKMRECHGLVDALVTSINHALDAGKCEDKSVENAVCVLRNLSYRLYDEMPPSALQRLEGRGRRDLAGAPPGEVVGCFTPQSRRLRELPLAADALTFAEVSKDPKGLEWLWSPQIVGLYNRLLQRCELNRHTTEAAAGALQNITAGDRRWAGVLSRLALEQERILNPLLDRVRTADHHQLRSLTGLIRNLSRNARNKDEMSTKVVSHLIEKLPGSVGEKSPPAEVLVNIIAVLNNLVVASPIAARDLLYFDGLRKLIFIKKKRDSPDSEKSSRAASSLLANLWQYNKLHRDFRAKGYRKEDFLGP
UniProt Q6PCE3: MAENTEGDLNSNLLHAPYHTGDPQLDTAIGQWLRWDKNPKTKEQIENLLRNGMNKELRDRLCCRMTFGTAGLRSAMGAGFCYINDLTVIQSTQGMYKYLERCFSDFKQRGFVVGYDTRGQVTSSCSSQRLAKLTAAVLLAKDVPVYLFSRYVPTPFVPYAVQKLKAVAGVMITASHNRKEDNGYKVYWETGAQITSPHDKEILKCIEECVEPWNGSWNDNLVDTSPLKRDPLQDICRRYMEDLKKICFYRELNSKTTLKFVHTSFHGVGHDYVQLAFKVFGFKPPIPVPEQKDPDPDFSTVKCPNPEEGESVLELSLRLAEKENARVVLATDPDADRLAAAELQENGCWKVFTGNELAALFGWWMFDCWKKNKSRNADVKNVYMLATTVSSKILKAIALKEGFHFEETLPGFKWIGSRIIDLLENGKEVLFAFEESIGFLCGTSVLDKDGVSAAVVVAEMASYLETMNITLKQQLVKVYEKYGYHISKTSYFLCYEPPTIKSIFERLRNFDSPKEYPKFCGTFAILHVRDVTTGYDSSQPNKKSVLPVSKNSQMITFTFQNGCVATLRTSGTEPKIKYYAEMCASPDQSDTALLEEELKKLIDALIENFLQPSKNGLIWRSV
UniProt P48739: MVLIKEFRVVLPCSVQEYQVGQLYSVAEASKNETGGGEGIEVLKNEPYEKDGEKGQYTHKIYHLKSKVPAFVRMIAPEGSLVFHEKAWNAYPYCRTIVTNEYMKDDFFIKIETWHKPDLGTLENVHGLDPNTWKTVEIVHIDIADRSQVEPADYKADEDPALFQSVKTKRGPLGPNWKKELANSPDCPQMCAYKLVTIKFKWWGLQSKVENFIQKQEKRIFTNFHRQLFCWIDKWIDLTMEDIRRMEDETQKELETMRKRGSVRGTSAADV
UniProt O00443: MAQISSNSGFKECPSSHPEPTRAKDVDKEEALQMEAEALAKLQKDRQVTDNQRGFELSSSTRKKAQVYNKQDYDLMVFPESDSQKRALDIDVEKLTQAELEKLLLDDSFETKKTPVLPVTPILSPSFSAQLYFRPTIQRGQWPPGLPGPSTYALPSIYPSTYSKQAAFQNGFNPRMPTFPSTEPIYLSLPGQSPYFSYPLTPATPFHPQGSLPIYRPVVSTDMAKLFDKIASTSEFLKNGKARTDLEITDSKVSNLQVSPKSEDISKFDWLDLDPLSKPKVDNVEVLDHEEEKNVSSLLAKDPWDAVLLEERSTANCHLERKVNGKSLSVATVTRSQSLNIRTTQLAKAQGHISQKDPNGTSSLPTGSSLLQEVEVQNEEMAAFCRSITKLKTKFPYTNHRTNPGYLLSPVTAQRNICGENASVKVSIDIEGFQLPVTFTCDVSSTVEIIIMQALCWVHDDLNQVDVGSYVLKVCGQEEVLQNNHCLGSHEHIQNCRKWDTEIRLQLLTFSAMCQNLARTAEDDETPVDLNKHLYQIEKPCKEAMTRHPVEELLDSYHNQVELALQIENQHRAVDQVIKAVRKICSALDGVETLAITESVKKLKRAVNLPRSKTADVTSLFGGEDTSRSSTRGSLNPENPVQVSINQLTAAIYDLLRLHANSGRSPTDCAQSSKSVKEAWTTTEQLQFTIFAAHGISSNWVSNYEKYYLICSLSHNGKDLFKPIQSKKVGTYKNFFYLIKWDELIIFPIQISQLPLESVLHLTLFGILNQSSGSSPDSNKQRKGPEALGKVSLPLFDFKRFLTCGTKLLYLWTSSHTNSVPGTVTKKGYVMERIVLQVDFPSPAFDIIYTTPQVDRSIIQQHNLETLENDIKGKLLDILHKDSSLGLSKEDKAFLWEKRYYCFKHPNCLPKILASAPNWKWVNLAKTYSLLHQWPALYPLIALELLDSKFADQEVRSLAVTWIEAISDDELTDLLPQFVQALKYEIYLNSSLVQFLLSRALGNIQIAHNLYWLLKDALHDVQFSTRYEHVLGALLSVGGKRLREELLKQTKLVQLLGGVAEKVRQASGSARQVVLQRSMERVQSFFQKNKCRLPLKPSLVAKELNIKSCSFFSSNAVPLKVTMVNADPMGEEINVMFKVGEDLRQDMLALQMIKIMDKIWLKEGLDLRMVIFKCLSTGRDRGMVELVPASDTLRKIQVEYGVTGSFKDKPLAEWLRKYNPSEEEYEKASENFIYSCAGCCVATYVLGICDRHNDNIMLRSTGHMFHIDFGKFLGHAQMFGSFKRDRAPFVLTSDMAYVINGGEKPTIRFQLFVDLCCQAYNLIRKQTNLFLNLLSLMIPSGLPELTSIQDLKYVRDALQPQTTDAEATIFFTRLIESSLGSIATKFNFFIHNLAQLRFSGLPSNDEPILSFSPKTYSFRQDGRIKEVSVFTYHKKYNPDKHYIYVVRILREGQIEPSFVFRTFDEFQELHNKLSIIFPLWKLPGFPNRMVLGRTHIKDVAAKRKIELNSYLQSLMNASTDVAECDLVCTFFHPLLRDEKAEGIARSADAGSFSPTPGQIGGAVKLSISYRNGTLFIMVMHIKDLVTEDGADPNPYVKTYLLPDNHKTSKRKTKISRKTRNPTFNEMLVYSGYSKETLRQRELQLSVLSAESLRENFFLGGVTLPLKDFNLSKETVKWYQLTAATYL
UniProt Q16513: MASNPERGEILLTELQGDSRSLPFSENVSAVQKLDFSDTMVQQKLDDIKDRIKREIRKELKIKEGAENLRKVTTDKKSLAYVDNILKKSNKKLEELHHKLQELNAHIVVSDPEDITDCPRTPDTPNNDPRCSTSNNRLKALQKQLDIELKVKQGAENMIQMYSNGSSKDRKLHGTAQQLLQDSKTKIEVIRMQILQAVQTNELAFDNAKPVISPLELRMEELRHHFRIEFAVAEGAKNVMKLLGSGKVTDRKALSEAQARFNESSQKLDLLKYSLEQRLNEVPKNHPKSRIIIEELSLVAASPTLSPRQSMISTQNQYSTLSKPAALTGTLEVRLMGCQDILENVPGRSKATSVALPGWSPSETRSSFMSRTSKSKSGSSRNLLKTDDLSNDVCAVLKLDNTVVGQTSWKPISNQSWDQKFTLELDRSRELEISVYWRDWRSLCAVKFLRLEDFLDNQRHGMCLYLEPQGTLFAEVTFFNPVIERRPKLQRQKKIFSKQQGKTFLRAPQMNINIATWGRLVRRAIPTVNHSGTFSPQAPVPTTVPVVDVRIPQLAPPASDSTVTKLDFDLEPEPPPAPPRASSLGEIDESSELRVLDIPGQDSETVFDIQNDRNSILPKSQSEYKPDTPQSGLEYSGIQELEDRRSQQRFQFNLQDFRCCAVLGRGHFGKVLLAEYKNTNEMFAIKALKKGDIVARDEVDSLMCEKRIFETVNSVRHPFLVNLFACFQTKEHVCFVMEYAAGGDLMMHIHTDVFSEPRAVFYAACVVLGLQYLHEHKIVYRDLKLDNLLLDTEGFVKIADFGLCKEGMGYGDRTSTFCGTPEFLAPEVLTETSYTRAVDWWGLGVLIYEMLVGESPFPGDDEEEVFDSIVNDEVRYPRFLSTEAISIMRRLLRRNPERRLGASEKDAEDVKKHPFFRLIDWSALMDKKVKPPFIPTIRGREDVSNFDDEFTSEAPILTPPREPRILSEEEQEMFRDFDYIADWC
UniProt P48736: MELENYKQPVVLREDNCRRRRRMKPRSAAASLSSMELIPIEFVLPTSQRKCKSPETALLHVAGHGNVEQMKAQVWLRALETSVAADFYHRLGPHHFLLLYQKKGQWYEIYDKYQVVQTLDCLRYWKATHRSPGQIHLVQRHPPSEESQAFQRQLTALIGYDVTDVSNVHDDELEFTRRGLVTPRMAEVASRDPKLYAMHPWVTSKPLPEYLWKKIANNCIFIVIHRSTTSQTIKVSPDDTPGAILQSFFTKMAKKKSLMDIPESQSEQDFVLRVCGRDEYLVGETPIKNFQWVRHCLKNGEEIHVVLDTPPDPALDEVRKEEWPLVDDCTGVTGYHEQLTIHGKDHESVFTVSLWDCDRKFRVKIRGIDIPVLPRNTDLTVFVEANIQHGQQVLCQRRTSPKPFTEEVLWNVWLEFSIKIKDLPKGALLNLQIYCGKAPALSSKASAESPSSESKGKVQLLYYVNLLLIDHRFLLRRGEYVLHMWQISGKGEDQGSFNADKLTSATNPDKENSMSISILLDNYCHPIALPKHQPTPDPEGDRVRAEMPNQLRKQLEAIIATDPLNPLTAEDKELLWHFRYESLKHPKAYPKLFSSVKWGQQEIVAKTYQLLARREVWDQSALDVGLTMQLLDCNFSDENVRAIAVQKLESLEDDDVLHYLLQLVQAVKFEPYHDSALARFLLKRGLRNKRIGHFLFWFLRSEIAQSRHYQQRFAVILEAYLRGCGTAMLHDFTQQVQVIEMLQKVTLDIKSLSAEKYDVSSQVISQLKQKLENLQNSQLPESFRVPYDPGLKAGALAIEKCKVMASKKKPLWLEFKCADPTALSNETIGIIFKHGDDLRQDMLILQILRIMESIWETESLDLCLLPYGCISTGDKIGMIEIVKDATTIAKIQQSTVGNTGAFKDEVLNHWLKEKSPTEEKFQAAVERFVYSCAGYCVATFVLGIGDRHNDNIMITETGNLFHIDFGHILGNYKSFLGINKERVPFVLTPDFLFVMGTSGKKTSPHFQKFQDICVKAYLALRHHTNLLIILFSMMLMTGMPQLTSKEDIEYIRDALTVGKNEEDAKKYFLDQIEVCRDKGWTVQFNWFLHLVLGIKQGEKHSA
UniProt Q99640: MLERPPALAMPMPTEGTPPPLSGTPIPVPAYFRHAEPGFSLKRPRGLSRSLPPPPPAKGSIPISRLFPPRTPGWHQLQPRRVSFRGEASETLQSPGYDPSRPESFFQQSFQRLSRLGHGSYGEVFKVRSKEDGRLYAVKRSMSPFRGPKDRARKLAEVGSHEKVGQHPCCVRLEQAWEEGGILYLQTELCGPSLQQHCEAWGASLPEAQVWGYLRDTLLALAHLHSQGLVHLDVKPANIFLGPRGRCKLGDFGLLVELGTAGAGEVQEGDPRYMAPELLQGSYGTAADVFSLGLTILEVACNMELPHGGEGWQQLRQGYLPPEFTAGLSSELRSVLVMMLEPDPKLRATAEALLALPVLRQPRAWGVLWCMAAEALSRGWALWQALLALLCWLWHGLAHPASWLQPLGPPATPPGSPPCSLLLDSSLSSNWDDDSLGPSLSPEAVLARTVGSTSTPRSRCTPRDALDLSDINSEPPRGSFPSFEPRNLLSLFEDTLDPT

How the values were obtained:
Test in all cases: log2 fold change, soluble protein after heating vs DMSO (PISA); higher = thermal stabilisation; K562 cells, 10 uM, 30 min; active = over 0.2 and 3.5 SD of the protein, either way, in both replicates (recomputed)
[1] = compound: CN1CCN(CCOc2cc(OC3CCOCC3)c3c(Nc4c(Cl)ccc5c4OCO5)ncnc3c2)CC1 [saracatinib]
Summary of the method: (§1)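 Soluble protein was quantified by TMTpro 16plex LC-MS/MS after channel sums were equalised. It was obtained as the supernatant after 21,000xg for 90 min from pooled aliquots of K562 cells (2×10^6 cells/mL, 10 μM compound, 30 min) heated for 3 min across 48°C-58°C and extracted in PBS with 0.5% NP-40 at 4°C. Thermal stability values are relative to control samples and come from duplicates. They are given as log2 fold changes.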

[2] = compound: CN1CCN(c2nc(C3=C(c4c[nH]c5ccccc45)C(=O)NC3=O)c3ccccc3n2)CC1 [sotrastaurin]
Summary of the method: as §1

[3] = compound: CN1CC[C@H](c2c(O)cc(O)c3c(=O)cc(-c4ccccc4Cl)oc23)[C@H](O)C1 [alvocidib]
Summary of the method: as §1

[4] = compound: CN1CCc2c(c3ccccc3n2Cc2ccc(C(=O)NO)cc2)C1 [Tubastatin A]
Summary of the method: as §1

[5] = compound: CNC(=O)C1=CC=CC=C1NC2=NC(=NC=C2Cl)NC3=C(C=C(C=C3)N4CCOCC4)OC
Summary of the method: as §1

[6] = compound: CNC(=O)c1ccc(Nc2ncc(C(F)(F)F)c(NCc3nccnc3N(C)S(C)(=O)=O)n2)cc1 [defactinib]
Summary of the method: as §1

[7] = compound: CNCc1ccc(-c2[nH]c3cc(F)cc4c3c2CCNC4=O)cc1 [rucaparib]
Summary of the method: as §1

[8] = compound: CNc1nc(-c2ccc3c(N)n[nH]c3c2)cc(N2C[C@@H](C(=O)NC3CCCCC3)CC[C@H]2C)n1
Summary of the method: as §1

[9] = compound: COC(=O)N[C@@H](C)CNc1nccc(-c2cn(C(C)C)nc2-c2cc(Cl)cc(NS(C)(=O)=O)c2F)n1 [encorafenib]
Summary of the method: as §1

[10] = compound: COC(=O)[C@H](CCSC)NC(=O)C1=C(C=C(C=C1)NC[C@H](CS)N)C2=CC=CC=C2
Summary of the method: as §1

Target | log2 fold change [1] | log2 fold change [2] | log2 fold change [3] | log2 fold change [4] | log2 fold change [5] | log2 fold change [6] | log2 fold change [7] | log2 fold change [8] | log2 fold change [9] | log2 fold change [10]
PIGS (UniProt Q96S52) | inactive: -0.037 | inactive: 0.023 | inactive: -0.039 | inactive: -0.007 | inactive: 0.016 | inactive: 0.023 | inactive: -0.037 | inactive: 0.05 | inactive: 0.016 | inactive: -0.024
PIN4 isoform 2 (UniProt Q9Y237) | inactive: -0.009 | inactive: 0.001 | inactive: -0.031 | inactive: -0.033 | inactive: -0.006 | inactive: -0.022 | inactive: -0.034 | inactive: -0.004 | inactive: -0.02 | inactive: 0.004
PEX19 (UniProt P40855) | inactive: 0.018 | inactive: 0.025 | inactive: 0.006 | inactive: 0.023 | inactive: -0.049 | inactive: -0.027 | inactive: -0.024 | inactive: -0.036 | inactive: -0.035 | inactive: 0.018
PFKP (UniProt Q01813) | inactive: 0.009 | inactive: 0.019 | inactive: -0.012 | inactive: -0.004 | inactive: -0.038 | inactive: -0.035 | inactive: -0.017 | inactive: -0.003 | inactive: -0.026 | inactive: -0.023
PIGBOS1, A0A0B4J2F0 | inactive: 0 | inactive: 0.08 | inactive: -0.018 | inactive: 0.055 | inactive: 0.039 | inactive: 0.012 | inactive: -0.005 | inactive: -0.02 | inactive: -0.125 | inactive: -0.08
PINX1 (UniProt Q96BK5) | inactive: 0.039 | inactive: -0.092 | inactive: 0.428 | inactive: -0.018 | inactive: 0 | inactive: 0.478 |  | inactive: 0.043 |  | inactive: 0.035
PIGN (UniProt O95427) | inactive: 0.061 | inactive: 0.074 | inactive: 0.049 | inactive: 0.061 |  |  | inactive: 0.037 | inactive: -0.222 | inactive: 0.099 | 
PIGK (UniProt Q92643) | inactive: -0.006 | inactive: 0.004 | inactive: 0.025 | inactive: 0.044 | inactive: 0.015 | inactive: 0.017 | inactive: 0.065 | inactive: 0.013 | inactive: 0.063 | inactive: 0.005
PI4K2A (UniProt Q9BTU6) | inactive: 0.058 | inactive: 0.041 |  | inactive: -0.008 | inactive: -0.024 | inactive: -0.014 | inactive: -0.027 | inactive: -0.11 | inactive: 0.057 | inactive: 0.02
PHPT1 (UniProt Q9NRX4) | inactive: 0.008 | inactive: 0.017 | inactive: -0.079 | inactive: 0.02 | inactive: 0.062 | inactive: -0.002 | inactive: -0.045 | inactive: -0.035 | inactive: -0.003 | inactive: 0.041
PHB (UniProt P35232) | inactive: 0.035 | inactive: 0.001 | inactive: 0.022 | inactive: -0.019 | inactive: 0.016 | inactive: 0.015 | inactive: -0.036 | inactive: -0.02 | inactive: -0.009 | inactive: -0.006
PFN1 (UniProt P07737) | inactive: 0.042 | inactive: -0.022 | inactive: -0.05 | inactive: -0.045 | inactive: -0.01 | inactive: 0.02 | inactive: -0.039 | inactive: -0.004 | inactive: -0.002 | inactive: -0.002
PGPEP1 (UniProt Q9NXJ5) | inactive: -0.061 | inactive: -0.12 | inactive: -0.172 |  | inactive: -0.002 | inactive: 0.497 | inactive: 0 | inactive: 0.204 | inactive: 0.039 | inactive: -0.013
PIGU (UniProt Q9H490) | inactive: 0.031 | inactive: -0.062 | inactive: -0.008 | inactive: 0.004 | inactive: 0.019 | inactive: -0.098 | inactive: -0.048 | inactive: -0.014 | inactive: -0.02 | inactive: 0.015
PKP3 isoform 2 (UniProt Q9Y446) | inactive: -0.278 | inactive: -0.071 | inactive: -0.021 | inactive: 0.072 |  | inactive: -0.166 | inactive: 0.255 | inactive: 0.108 | inactive: 0.057 | inactive: -0.127
PGM2L1 (UniProt Q6PCE3) | inactive: 0.086 | inactive: 0.032 | inactive: 0.015 | inactive: -0.029 | inactive: -0.008 | inactive: -0.006 | inactive: -0.022 | inactive: -0.037 | inactive: -0.008 | inactive: 0.043
PGAM5 (UniProt Q96HS1) | inactive: -0.033 | inactive: 0.042 | inactive: 0.207 | inactive: -0.011 | inactive: 0.056 | inactive: 0.184 | inactive: 0.273 | inactive: 0.027 | inactive: 0.052 | inactive: 0.005
PHGDH (UniProt O43175) | inactive: 0.03 | inactive: 0.021 | inactive: -0.005 | inactive: -0.024 | inactive: -0.02 | inactive: -0.011 | inactive: -0.026 | inactive: -0.023 | inactive: -0.009 | inactive: -0.002
PITPNB isoform 3 (UniProt P48739) | inactive: 0.005 | inactive: 0.109 | inactive: -0.046 | inactive: -0.033 | inactive: 0.063 | inactive: -0.002 | inactive: -0.015 | inactive: -0.035 | inactive: -0.018 | inactive: 0.004

Quoted at random: two records from the list, in no set order.
Target | log2 fold change [1] | log2 fold change [2] | log2 fold change [3] | log2 fold change [4] | log2 fold change [5] | log2 fold change [6] | log2 fold change [7] | log2 fold change [8] | log2 fold change [9] | log2 fold change [10]
PFKP (UniProt Q01813) | inactive: 0.009 | inactive: 0.019 | inactive: -0.012 | inactive: -0.004 | inactive: -0.038 | inactive: -0.035 | inactive: -0.017 | inactive: -0.003 | inactive: -0.026 | inactive: -0.023
PHB (UniProt P35232) | inactive: 0.035 | inactive: 0.001 | inactive: 0.022 | inactive: -0.019 | inactive: 0.016 | inactive: 0.015 | inactive: -0.036 | inactive: -0.02 | inactive: -0.009 | inactive: -0.006

Further results

Target | log2 fold change [1] | log2 fold change [2] | log2 fold change [3] | log2 fold change [4] | log2 fold change [5] | log2 fold change [6] | log2 fold change [7] | log2 fold change [8] | log2 fold change [9] | log2 fold change [10]
PLAUR (UniProt Q03405) |  |  | inactive: 0.045 |  |  |  |  |  |  | 
PLEK (UniProt P08567) |  |  |  |  | inactive: 0.111 | inactive: 0.16 |  |  |  | inactive: -0.065
PIMREG (UniProt Q9BSJ6) |  |  |  |  |  |  | inactive: -0.201 |  | inactive: 0.158 | 
PGD (UniProt K7EM49) |  |  |  |  |  | inactive: 0.116 |  |  |  | inactive: 0.066
PKNOX1 (UniProt P55347) | inactive: -0.044 |  |  |  | inactive: 0.069 |  |  | inactive: 0.081 |  | 
PIK3C2A (UniProt O00443) |  | inactive: -0.151 |  |  | inactive: -0.005 |  |  |  |  | 
PHC3 isoform 7 (UniProt Q8NDX5) |  | inactive: -0.071 |  |  | inactive: -0.007 |  | inactive: -0.276 |  | inactive: 0.154 | 
PLCL1 (UniProt Q15111) |  | inactive: 0.032 |  | inactive: 0.166 | inactive: -0.131 | inactive: -0.02 | inactive: 0.2 |  | inactive: 0.018 | inactive: 0.047
PHLDB1 isoform 2 (UniProt Q86UU1) | inactive: -0.02 |  |  | inactive: -0.023 | inactive: -0.164 | inactive: -0.035 | inactive: 0.011 | inactive: 0.066 | inactive: 0.089 | inactive: -0.001
PIGH (UniProt Q14442) | inactive: -0.099 |  |  | active: -0.274 | inactive: 0.012 | inactive: 0.005 | inactive: 0.037 | inactive: 0.025 | inactive: -0.068 | inactive: -0.001
PKHD1 (UniProt P08F94) |  |  |  |  |  | inactive: 0.03 | inactive: 0.039 |  | inactive: -0.034 | inactive: -0.072
PKN2 (UniProt Q16513) | inactive: -0.059 |  |  | inactive: 0.025 | inactive: 0.037 | inactive: -0.099 | inactive: -0.039 | inactive: -0.037 | inactive: 0.024 | inactive: -0.05
PKLR (UniProt F8W6W2) |  |  |  |  |  | inactive: 0.06 |  |  |  | inactive: 0.268
PLEKHB2 isoform 2 (UniProt Q96CS7) | inactive: -0.217 |  |  |  |  |  |  | inactive: 0.035 |  | 
PIK3CG (UniProt P48736) |  | inactive: -0.518 |  |  | inactive: 0.015 |  | inactive: 0.136 |  | inactive: 0.159 | 
PIGO (UniProt Q8TEQ8) |  |  | inactive: 0.135 | inactive: -0.028 | inactive: -0.054 | inactive: -0.025 |  |  |  | inactive: -0.031
PGM1 isoform 2 (UniProt P36871) | inactive: 0.048 |  |  |  | inactive: -0.285 |  |  | inactive: -0.15 |  | 
PKMYT1 (UniProt Q99640) |  | inactive: -0.227 |  |  | inactive: -0.077 |  | inactive: 0.261 |  | inactive: 0.045 | 
